The exact form of at least one protein or probe is not confirmed. Weaker means in comparison with the reference protein, sequence or condition of that experiment. At least one verdict rests on a figure or table, not on a statement of the authors.
Test system: INTS6 + INTS3 (SOSS1 subunit) + hSSB1 (SOSS1 subunit) + INIP (SOSS1 subunit)
Assay: EMSA
Settings: 5 mM Mg2+, pattern similar to INTS6 alone; EMSA: 25 mM Tris-Cl pH 7.5, 1 mM DTT, 5 mM MgCl2, 100 mM NaCl, 20 min at 37 C; protein 22-167 nM, nucleic acid 10 nM; 7.5% native PAGE, 0.5x TBE, 4 C; recombinant protein; label: 5'-Cy3; single-stranded DNA

Does “GTGCCTTGCTAGGACATCTTT [21-mer ssDNA (pR630)]” bind?
Result: binds more weakly

From PMC11602137
